This experiment has as its target T1, TR2 (NR2C1), two-hybrid fusion, Q505F1.
T1 chain: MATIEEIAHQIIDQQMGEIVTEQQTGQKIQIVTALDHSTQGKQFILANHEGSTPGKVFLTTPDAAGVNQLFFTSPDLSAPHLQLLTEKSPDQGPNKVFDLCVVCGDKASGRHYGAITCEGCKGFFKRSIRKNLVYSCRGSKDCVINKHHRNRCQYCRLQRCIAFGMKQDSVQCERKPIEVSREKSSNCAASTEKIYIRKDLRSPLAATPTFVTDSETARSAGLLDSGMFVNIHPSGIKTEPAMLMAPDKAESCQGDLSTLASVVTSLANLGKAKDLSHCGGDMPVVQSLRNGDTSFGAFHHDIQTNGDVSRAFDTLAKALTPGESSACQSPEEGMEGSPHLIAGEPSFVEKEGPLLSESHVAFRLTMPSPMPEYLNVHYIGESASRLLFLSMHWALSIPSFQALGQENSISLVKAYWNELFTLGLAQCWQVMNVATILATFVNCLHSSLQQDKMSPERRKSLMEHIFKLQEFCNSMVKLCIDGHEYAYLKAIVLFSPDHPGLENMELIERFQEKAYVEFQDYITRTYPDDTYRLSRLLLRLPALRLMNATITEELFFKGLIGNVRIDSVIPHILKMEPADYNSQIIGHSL
Put plainly: two-hybrid. To be noted: remark: other sources report otherwise.

No constants are given. Whether binding was seen depends on the method and setting. Sequences can lack the tags named with a protein.

B1: HDAC3, two-hybrid fusion, O88895 1-428 (enzyme)
chain: MAKTVAYFYDPDVGNFHYGAGHPMKPHRLALTHSLVLHYGLYKKMIVFKPYQASQHDMCRFHSEDYIDFLQRVSPTNMQGFTKSLNAFNVGDDCPVFPGLFEFCSRYTGASLQGATQLNNKICDIAINWAGGLHHAKKFEASGFCYVNDIVIGILELLKYHPRVLYIDIDIHHGDGVQEAFYLTDRVMTVSFHKYGNYFFPGTGDMYEVGAESGRYYCLNVPLRDGIDDQSYKHLFQPVISQVVDFYQPTCIVLQCGADSLGCDRLGCFNLSIRGHGECVEYVKSFNIPLLVLGGGGYTVRNVARCWTYETSLLVEEAISEELPYSEYFEYFAPDFTLHPDVSTRIENQNSRQYLDQIRQTIFENLKMLNHAPSVQIHDVPADLLTYDRTDEADAEERGPEENYSRPEAPNEFYDGDHDNDKESDVEI
With B1, the binding result is reported as “no binding”.
